{"sequences": {"note": "Amino acid sequences for entries named in this document (tags omitted). A change or cut given only in a name is not applied to a line headed by its entry.", "UniProt O95999": "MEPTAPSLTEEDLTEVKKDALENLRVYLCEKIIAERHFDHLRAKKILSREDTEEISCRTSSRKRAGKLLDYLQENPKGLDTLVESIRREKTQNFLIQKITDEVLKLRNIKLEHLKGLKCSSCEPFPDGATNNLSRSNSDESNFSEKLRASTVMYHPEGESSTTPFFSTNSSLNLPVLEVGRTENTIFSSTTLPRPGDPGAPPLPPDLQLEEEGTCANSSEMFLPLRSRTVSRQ", "UniProt O94766": "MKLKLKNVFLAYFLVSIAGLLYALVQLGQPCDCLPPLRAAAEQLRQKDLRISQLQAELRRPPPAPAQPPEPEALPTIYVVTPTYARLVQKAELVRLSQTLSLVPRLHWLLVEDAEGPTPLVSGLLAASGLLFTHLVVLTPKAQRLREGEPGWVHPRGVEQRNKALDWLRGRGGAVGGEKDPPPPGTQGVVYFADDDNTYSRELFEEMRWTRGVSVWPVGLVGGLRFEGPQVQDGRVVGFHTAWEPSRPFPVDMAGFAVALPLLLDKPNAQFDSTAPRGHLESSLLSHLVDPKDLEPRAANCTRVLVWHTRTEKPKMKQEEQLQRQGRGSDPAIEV", "UniProt Q96DM3": "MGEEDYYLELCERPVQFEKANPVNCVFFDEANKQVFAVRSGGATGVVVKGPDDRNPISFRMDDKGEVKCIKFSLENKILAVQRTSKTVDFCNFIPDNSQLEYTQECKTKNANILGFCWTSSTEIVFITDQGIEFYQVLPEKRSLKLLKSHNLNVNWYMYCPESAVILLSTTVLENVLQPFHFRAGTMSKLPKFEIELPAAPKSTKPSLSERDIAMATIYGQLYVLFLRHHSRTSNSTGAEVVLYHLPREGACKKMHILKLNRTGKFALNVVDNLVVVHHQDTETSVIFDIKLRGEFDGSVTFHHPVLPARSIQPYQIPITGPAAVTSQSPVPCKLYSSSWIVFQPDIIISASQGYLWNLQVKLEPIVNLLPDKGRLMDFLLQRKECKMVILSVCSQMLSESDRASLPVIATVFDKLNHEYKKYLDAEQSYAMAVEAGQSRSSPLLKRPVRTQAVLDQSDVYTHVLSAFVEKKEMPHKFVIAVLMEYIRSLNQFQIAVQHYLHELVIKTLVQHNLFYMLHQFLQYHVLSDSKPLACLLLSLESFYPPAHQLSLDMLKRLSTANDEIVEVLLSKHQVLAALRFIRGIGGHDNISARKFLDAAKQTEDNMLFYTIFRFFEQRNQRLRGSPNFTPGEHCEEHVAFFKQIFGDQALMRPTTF", "UniProt Q13535": "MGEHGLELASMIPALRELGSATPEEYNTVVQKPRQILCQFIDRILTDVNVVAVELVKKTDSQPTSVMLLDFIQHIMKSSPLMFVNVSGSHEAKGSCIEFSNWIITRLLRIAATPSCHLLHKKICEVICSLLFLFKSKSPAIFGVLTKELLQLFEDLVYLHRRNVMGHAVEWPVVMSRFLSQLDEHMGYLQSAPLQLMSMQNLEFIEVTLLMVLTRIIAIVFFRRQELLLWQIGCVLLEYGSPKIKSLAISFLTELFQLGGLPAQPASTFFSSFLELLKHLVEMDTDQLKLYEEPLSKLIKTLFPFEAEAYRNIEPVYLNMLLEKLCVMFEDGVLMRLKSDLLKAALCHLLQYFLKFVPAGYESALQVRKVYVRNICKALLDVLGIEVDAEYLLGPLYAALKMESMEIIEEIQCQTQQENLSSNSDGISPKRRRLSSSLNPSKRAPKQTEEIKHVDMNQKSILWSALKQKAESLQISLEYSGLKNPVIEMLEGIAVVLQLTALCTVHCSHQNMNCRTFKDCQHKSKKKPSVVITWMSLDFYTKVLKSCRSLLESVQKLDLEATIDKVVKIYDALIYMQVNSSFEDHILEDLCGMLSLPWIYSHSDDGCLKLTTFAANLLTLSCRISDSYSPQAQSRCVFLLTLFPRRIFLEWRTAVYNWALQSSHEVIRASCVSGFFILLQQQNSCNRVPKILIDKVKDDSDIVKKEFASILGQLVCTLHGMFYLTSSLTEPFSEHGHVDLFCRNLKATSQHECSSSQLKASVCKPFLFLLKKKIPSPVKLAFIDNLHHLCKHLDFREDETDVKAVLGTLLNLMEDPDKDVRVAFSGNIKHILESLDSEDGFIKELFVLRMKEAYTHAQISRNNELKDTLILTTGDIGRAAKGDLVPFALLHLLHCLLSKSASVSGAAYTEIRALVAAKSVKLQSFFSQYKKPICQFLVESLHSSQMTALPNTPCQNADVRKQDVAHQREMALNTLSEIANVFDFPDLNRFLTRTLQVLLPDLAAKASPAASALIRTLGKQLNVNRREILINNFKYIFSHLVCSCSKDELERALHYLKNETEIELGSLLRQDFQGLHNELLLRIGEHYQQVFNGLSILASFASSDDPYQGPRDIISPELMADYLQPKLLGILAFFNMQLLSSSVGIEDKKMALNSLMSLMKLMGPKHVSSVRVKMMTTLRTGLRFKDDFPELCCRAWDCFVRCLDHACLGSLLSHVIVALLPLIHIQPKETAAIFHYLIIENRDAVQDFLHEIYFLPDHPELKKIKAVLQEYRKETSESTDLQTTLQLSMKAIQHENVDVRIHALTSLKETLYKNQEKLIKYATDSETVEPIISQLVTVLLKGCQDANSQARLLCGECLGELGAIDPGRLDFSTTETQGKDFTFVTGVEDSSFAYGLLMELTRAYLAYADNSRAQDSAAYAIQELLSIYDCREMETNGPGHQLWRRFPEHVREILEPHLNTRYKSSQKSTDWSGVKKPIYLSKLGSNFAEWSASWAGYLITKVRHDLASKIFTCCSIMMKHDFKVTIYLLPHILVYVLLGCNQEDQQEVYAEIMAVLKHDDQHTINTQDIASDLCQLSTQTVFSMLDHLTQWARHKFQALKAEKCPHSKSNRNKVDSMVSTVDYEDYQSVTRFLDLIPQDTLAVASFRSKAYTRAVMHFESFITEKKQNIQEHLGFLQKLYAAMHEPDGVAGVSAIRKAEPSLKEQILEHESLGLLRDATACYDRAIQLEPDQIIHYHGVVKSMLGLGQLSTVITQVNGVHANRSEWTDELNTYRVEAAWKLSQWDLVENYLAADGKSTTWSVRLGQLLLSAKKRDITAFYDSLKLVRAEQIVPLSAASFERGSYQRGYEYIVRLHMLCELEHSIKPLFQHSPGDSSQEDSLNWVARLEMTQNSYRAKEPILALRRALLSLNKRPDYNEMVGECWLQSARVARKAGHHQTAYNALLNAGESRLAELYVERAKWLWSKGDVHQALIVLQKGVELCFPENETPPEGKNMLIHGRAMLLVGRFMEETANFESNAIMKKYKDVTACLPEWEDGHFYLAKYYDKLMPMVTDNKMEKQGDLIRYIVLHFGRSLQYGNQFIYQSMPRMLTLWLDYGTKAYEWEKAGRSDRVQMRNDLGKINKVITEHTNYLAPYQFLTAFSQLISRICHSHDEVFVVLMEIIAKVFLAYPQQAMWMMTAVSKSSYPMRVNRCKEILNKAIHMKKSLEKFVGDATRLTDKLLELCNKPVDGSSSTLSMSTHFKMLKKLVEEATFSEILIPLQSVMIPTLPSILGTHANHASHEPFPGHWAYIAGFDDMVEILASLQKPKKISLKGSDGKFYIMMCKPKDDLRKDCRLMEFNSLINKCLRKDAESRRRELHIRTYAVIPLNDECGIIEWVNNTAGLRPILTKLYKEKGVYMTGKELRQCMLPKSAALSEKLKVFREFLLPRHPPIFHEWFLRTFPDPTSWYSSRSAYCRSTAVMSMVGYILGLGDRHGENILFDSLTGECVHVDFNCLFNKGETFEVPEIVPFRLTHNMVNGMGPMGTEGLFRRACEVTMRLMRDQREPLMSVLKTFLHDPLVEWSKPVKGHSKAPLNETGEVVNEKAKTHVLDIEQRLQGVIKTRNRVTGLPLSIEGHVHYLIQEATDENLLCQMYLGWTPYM", "UniProt Q86U38": "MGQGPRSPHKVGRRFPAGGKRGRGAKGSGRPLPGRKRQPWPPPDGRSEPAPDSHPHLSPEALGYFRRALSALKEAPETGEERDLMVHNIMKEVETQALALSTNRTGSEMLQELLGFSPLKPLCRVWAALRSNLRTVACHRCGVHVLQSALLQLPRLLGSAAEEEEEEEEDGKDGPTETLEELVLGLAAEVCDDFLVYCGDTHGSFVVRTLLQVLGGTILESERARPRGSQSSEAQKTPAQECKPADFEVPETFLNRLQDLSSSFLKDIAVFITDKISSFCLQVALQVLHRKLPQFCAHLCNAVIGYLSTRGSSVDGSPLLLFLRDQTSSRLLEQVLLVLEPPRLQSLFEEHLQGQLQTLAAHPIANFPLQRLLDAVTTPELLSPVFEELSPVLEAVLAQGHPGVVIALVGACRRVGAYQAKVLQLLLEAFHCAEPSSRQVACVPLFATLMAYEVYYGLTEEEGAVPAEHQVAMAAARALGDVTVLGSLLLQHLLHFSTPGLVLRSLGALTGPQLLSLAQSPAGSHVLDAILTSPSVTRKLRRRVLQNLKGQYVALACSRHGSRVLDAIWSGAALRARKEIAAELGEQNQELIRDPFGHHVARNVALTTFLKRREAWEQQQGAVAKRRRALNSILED", "UniProt Q12982": "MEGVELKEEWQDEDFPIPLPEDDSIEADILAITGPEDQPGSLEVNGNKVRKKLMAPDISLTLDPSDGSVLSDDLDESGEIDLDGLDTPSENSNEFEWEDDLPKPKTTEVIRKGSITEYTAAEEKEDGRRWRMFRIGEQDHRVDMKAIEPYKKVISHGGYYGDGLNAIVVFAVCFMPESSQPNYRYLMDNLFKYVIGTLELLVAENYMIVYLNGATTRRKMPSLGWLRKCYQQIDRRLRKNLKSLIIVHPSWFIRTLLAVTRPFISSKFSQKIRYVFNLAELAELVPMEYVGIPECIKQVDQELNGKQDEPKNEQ", "UniProt Q9UL15": "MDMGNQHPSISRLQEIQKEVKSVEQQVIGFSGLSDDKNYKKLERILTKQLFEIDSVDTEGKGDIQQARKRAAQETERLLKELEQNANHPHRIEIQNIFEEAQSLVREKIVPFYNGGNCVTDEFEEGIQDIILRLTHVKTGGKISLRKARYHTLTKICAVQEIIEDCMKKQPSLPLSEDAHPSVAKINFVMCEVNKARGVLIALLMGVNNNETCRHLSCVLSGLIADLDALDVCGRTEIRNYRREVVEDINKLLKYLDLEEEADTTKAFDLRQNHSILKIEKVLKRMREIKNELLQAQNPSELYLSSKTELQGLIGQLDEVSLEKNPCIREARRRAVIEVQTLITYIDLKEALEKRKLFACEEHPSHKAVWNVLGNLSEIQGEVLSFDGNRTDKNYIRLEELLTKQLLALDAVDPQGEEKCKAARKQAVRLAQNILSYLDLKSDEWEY", "UniProt P25705": "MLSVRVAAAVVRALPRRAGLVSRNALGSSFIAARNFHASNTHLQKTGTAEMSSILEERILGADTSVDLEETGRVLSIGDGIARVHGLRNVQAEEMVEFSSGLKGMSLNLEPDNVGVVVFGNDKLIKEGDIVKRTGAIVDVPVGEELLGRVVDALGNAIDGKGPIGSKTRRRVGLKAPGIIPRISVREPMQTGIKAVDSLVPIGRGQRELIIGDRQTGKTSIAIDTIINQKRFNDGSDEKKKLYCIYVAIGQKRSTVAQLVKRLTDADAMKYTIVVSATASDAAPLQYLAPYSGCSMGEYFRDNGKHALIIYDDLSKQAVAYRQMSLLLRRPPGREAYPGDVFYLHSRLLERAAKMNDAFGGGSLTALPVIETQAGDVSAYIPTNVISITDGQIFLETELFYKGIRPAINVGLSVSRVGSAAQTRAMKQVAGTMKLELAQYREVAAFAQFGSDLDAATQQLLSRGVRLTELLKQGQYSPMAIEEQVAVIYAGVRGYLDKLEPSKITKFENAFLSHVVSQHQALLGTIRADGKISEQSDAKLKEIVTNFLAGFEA", "UniProt P61421, whole entry": "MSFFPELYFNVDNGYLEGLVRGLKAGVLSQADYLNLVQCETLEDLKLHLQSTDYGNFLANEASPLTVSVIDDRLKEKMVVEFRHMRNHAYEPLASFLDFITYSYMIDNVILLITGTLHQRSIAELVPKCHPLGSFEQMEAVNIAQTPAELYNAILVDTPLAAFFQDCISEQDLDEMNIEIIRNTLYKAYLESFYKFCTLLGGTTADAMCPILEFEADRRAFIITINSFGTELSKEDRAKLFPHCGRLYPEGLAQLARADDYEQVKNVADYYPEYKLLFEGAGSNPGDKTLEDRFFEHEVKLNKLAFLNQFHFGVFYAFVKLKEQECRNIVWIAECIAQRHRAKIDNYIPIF", "UniProt Q9HAS0": "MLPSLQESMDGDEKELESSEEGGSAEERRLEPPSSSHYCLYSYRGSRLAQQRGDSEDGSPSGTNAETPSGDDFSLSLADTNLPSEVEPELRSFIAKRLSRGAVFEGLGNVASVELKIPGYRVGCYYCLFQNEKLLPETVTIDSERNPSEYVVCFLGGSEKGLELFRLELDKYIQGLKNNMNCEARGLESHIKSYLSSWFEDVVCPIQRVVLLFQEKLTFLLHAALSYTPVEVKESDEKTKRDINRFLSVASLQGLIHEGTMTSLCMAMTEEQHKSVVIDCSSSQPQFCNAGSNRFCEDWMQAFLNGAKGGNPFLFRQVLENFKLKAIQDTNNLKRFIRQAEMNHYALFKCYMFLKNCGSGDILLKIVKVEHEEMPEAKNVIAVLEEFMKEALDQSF"}, "source": "the supplement of paper PMC7666118", "note": "Some of the results follow."}
{"compound": "COc1ccc(Cn2ccc3cc(C)c(C(=O)NO)cc32)cc1", "assay": "dose-dependent thermal stabilisation call (2D-TPP, DLPTP, 10% FDR) (binary (1 = stabilised)); higher = stabilised by the compound", "conditions": "system: HL-60 intact cells; concentration range 0.04-10 µM", "procedure": "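2D thermal proteome profiling in intact HL-60 cells treated with BRD-3811 (0, 0.04, 0.29, 2, 10 uM) for 90 min at 37 C, then heated 3 min at one of 12 temperatures (42-63.9 C). Soluble protein was quantified by TMT10 MS. The value is the DLPTP call of the paper: dose-dependent thermal stabilisation over all temperatures at 10% FDR (F-test of a dose-response against a flat model); one experiment, one call per tested protein.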"}
{"target": "BCL10 (UniProt O95999)", "dose-dependent thermal stabilisation call": "inactive: 0"}
{"target": "BAG2 (UniProt O95816)", "dose-dependent thermal stabilisation call": "inactive: 0"}
{"target": "C17ORF62 (UniProt Q9BQA9)", "dose-dependent thermal stabilisation call": "inactive: 0"}
{"target": "B3GAT3 (UniProt O94766)", "dose-dependent thermal stabilisation call": "inactive: 0"}
{"target": "C18ORF8 (UniProt Q96DM3)", "dose-dependent thermal stabilisation call": "inactive: 0"}
{"target": "ATR (UniProt Q13535)", "dose-dependent thermal stabilisation call": "inactive: 0"}
{"target": "C14ORF21 (UniProt Q86U38)", "dose-dependent thermal stabilisation call": "inactive: 0"}
{"target": "BNIP2 (UniProt Q12982)", "dose-dependent thermal stabilisation call": "inactive: 0"}
{"target": "C15ORF44 (UniProt Q96SY0)", "dose-dependent thermal stabilisation call": "inactive: 0"}
{"target": "C19ORF12 (UniProt Q9NSK7)", "dose-dependent thermal stabilisation call": "inactive: 0"}
{"target": "BAG5 (UniProt Q9UL15)", "dose-dependent thermal stabilisation call": "inactive: 0"}
{"target": "ATP5A1 (UniProt P25705)", "dose-dependent thermal stabilisation call": "inactive: 0"}
{"target": "C15ORF57 (UniProt Q9BV29)", "dose-dependent thermal stabilisation call": "inactive: 0"}
{"target": "BNIP1 (UniProt Q12981)", "dose-dependent thermal stabilisation call": "inactive: 0"}
{"target": "ATP6V0D1 (UniProt P61421)", "dose-dependent thermal stabilisation call": "inactive: 0"}
{"target": "ATPBD4 (UniProt Q7L8W6)", "dose-dependent thermal stabilisation call": "inactive: 0"}
{"target": "C11ORF68 (UniProt Q9H3H3)", "dose-dependent thermal stabilisation call": "inactive: 0"}
{"target": "C17ORF75 (UniProt Q9HAS0)", "dose-dependent thermal stabilisation call": "inactive: 0"}
{"target": "C11ORF84 (UniProt Q9BUA3)", "dose-dependent thermal stabilisation call": "inactive: 0"}
{"target": "C12ORF29 (UniProt Q8N999)", "dose-dependent thermal stabilisation call": "inactive: 0"}
{"target": "BCAP29 (UniProt Q9UHQ4)", "dose-dependent thermal stabilisation call": "inactive: 0"}
{"target": "ATPAF1 (UniProt Q5TC12)", "dose-dependent thermal stabilisation call": "inactive: 0"}
{"target": "BYSL (UniProt Q13895)", "dose-dependent thermal stabilisation call": "inactive: 0"}
{"target": "C14ORF4 (UniProt Q9H1B7)", "dose-dependent thermal stabilisation call": "inactive: 0"}
{"target": "C16ORF63 (UniProt Q96NB1)", "dose-dependent thermal stabilisation call": "inactive: 0"}
{"target": "C16ORF80 (UniProt Q9Y6A4)", "dose-dependent thermal stabilisation call": "inactive: 0"}
